Test results: patent US7081343
No constants are given. Whether binding was seen depends on the method and setting. For part of these data: Binding seen in cells or lysates may run through a third protein. Some binding calls cover weakened binding; strength is not graded here.

Amino acid sequences for entries named in this document (tags omitted). A change or cut given only in a name is not applied to a line headed by its entry. Residues count along the entry.
UniProt Q04206: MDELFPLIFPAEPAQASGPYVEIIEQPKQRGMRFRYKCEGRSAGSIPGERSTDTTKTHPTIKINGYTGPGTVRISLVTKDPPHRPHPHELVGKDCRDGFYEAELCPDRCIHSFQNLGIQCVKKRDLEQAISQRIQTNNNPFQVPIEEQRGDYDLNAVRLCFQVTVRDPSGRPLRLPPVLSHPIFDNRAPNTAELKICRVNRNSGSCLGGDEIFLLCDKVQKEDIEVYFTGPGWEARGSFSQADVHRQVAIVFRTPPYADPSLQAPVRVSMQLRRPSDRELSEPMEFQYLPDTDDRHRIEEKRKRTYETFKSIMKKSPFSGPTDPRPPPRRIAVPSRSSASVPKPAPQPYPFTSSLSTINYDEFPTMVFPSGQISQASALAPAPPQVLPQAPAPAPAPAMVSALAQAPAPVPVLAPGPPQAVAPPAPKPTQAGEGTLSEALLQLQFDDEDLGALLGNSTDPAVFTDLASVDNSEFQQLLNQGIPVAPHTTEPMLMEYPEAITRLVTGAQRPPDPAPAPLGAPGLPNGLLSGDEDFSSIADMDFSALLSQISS
RelA N-terminal 180 amino acids (mammalian two-hybrid construct): residues 1-180 of Q04206
UniProt O15379: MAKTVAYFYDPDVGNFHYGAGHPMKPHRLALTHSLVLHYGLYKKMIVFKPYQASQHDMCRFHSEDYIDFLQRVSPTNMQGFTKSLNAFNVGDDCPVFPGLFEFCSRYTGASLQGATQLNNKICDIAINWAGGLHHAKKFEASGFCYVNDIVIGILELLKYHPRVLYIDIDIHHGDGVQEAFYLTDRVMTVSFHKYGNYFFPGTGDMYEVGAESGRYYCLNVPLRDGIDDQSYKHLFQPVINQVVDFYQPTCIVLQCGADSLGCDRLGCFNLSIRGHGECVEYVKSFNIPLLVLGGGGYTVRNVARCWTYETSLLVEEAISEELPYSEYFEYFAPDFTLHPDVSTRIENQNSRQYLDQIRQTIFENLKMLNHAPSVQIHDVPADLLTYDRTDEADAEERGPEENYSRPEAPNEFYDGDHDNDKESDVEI

Legend:
T7-RelA = T7-RelA (UniProt Q04206); experiment: co-immunoprecipitation of HDAC3 deletion mutants with RelA
[1] = molecular target: RelA N-terminal 180 amino acids (mammalian two-hybrid construct) (UniProt Q04206); experiment: mammalian two-hybrid assay
[2] = molecular target: RelA N-terminal 180 amino acids (mammalian two-hybrid construct) (UniProt Q04206); experiment: mammalian two-hybrid assay (FIG. 3E)

Substance	binding (T7-RelA)	binding [1]	binding [2]
HDAC3 (1-406) (from UniProt O15379 1-406) (enzyme)	binds		
HDAC3 (mammalian two-hybrid construct) (from UniProt O15379 1-428) (enzyme)		binds	binds
